# Some of the results follow.
# Chains of the proteins cited; added tags and fusions are not shown. Lines headed by an entry give the natural chain unless they say otherwise; changes in a name come on top.
# UniProt P34932: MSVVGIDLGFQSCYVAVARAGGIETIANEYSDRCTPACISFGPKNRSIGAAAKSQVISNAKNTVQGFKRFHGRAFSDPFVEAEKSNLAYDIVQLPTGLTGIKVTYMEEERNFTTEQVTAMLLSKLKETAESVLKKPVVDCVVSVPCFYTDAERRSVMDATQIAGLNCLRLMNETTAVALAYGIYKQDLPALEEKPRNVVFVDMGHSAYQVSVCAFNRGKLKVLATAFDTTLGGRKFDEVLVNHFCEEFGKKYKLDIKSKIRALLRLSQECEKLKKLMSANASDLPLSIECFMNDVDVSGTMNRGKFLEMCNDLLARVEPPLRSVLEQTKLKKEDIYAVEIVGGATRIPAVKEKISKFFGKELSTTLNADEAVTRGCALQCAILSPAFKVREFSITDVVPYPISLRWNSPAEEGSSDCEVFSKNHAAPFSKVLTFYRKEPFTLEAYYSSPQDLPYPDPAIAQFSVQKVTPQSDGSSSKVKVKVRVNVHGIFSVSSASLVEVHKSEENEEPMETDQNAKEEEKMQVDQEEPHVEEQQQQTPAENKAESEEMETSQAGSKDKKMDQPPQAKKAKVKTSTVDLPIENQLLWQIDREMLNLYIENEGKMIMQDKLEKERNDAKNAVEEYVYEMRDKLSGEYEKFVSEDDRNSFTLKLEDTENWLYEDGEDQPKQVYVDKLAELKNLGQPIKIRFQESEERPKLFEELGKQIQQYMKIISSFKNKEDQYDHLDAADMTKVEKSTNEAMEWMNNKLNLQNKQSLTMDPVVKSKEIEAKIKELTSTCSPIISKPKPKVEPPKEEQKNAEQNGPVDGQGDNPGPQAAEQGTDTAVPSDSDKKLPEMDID
# UniProt O43719: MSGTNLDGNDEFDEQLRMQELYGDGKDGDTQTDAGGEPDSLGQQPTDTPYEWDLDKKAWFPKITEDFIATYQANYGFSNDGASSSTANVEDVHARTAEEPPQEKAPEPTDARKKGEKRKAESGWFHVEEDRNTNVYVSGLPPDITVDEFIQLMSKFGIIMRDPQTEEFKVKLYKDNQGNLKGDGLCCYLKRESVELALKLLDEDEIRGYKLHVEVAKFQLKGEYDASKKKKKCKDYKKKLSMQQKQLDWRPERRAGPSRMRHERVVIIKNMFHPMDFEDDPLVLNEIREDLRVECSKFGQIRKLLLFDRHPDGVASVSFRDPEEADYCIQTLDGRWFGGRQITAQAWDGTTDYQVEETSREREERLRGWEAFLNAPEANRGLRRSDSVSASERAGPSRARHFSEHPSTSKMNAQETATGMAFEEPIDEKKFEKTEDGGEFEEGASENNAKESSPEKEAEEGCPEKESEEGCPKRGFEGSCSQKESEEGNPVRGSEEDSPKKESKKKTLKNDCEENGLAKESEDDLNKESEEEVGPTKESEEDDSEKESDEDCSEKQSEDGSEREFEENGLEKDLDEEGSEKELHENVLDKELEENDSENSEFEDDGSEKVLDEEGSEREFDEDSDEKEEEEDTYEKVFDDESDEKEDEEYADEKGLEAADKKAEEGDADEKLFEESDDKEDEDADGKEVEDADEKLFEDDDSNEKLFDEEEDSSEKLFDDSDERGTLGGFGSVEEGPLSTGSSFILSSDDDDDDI
# UniProt O95757: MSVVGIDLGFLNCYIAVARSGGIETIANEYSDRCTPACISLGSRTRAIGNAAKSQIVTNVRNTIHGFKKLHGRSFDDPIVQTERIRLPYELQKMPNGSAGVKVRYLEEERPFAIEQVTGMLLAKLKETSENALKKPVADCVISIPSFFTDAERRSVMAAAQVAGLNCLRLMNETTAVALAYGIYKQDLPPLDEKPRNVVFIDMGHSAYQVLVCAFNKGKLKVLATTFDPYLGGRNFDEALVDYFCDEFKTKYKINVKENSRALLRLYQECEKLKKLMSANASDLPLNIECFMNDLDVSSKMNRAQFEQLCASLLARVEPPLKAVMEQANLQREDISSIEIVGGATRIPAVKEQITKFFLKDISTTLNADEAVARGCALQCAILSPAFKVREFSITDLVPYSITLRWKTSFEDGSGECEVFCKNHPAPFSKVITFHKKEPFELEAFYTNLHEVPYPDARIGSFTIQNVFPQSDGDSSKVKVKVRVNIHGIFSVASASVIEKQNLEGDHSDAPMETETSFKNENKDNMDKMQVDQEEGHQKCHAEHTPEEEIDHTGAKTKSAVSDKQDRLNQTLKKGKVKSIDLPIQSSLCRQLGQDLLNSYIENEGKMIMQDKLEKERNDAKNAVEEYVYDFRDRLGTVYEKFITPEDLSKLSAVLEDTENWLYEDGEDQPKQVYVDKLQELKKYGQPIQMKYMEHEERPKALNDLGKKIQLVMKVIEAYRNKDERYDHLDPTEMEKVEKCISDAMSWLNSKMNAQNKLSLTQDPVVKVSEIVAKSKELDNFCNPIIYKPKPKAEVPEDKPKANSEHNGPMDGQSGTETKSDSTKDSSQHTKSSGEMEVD
# UniProt Q99714: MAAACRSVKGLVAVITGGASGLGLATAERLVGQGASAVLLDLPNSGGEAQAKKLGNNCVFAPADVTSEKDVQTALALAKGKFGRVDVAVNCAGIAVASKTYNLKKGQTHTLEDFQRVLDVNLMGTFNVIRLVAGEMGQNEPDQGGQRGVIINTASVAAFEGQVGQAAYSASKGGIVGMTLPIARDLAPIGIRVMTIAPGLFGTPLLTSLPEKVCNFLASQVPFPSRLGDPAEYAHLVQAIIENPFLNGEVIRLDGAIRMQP
# UniProt Q32P51: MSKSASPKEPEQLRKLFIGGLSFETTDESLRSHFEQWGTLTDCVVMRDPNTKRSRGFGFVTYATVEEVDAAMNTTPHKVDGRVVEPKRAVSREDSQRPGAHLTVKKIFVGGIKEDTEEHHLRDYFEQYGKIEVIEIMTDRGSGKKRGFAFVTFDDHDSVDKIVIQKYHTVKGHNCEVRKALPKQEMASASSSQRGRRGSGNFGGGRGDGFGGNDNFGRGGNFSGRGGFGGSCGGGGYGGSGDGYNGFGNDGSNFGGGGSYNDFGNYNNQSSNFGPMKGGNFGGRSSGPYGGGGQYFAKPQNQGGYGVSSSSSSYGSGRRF
# UniProt P30519: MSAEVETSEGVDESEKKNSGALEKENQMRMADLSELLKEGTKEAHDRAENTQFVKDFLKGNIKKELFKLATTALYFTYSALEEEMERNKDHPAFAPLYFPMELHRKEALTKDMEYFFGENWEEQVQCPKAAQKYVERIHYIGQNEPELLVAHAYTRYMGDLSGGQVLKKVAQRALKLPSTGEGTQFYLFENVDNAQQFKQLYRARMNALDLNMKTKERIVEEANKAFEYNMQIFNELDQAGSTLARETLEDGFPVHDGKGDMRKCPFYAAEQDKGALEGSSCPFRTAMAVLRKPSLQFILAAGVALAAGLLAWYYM
# UniProt P54652, whole entry, looked up: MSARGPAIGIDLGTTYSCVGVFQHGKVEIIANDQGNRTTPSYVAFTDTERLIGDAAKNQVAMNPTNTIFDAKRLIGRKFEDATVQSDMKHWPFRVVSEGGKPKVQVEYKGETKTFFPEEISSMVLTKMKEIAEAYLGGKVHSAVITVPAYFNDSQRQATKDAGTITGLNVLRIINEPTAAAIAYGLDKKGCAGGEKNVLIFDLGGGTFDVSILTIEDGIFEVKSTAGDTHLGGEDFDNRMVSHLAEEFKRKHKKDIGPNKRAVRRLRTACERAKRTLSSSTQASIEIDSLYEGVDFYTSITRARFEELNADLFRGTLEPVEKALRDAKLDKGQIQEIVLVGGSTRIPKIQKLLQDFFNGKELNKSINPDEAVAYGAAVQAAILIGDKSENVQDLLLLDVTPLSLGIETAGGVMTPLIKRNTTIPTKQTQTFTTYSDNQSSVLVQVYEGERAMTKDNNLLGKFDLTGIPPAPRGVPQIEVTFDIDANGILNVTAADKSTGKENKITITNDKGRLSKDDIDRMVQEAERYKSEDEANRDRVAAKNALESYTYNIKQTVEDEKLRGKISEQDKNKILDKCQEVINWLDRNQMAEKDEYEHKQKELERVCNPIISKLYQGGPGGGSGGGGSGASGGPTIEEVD
# UniProt P08238, whole entry, looked up: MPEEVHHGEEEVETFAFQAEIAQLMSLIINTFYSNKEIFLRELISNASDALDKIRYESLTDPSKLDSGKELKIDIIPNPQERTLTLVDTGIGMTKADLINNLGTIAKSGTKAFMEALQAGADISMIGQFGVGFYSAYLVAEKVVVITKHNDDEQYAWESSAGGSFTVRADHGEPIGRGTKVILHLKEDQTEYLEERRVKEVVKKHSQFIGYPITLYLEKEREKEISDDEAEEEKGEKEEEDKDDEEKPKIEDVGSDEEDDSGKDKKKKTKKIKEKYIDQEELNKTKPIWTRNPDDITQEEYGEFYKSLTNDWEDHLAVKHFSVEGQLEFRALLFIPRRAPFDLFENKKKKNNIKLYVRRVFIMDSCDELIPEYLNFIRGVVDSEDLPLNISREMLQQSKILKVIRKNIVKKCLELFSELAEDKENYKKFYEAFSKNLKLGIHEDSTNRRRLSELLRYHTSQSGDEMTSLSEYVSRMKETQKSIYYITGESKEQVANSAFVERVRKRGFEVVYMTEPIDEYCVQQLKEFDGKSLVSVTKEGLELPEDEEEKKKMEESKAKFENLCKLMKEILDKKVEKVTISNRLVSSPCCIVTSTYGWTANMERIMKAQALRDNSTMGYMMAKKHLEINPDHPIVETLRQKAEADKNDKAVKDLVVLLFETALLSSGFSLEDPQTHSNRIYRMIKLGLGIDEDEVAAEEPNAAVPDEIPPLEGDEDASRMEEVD
# UniProt P38646: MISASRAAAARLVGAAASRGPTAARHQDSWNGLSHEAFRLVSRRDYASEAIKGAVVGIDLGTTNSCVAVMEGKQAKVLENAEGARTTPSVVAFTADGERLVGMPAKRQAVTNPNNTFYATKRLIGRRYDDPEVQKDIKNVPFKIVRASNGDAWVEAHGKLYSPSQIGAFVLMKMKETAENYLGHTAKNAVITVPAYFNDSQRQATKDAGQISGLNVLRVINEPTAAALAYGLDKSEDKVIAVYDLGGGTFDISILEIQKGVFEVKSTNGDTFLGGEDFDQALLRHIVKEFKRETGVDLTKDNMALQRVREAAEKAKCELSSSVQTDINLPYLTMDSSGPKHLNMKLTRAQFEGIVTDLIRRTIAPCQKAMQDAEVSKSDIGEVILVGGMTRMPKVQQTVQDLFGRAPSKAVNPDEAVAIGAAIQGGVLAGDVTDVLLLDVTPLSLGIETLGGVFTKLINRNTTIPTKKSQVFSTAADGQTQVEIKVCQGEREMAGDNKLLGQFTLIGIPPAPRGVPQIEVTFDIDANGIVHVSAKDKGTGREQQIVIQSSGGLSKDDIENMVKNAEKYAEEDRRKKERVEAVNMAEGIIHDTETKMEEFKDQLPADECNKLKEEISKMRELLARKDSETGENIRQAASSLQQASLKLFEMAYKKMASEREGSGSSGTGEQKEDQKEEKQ
# UniProt Q1KMD3: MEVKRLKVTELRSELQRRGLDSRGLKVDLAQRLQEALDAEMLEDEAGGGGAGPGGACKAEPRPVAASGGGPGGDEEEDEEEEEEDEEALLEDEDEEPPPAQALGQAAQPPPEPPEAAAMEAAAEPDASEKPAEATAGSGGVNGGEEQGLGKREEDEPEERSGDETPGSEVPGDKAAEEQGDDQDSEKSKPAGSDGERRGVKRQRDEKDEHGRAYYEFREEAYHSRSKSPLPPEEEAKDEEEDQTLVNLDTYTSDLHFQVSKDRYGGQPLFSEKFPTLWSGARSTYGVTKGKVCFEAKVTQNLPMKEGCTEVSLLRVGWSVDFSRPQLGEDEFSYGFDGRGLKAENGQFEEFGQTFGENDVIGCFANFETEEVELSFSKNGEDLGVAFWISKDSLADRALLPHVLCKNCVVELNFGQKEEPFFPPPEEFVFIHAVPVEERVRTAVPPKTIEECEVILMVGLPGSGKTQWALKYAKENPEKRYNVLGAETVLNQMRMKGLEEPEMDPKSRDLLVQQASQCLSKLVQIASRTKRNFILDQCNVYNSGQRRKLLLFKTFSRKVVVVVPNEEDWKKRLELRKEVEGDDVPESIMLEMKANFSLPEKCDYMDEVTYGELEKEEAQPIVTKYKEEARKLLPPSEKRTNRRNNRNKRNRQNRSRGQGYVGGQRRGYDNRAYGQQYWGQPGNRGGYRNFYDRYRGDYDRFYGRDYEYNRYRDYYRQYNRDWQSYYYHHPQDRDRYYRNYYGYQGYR
# Compound: CC1Cc2ccccc2N1C(=O)C1CCCN(C1)C(=O)CCl (mixture of isomers) [TRIM25 ligand 11 (diastereomer mixture)]
# Experiment: probe-labelled cysteine peptide fold change vs DMSO (competition) (log2 fold change); higher = less target engagement (more negative = stronger competition)
# Conditions: THP-1, incubation time: 4 h
# 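Further: competitive chemoproteomic profiling in live THP-1 cells with an iodoacetamide desthiobiotin (IA-DTB) probe, comparing probe-labelled peptide intensities in compound-treated cells against DMSO-treated controls.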
Target,probe-labelled cysteine peptide fold change (10 µM),probe-labelled cysteine peptide fold change (50 µM)
HSPA4_P34932_140+146_KPVVDCVVSVPCFYTDAER (UniProt P34932),0.113,0.00257
HTATSF1_O43719_328_HPDGVASVSFRDPEEADYCIQTLDGR (UniProt O43719),0.166,0.0493
HNRNPL_P14866_452_LNVCVSK (UniProt P14866),-0.0403,0.0431
HSPH1_Q92598_796_ELNNTCEPVVTQPKPK (UniProt Q92598),-0.444,-0.534
HSPA4L_O95757_245_NFDEALVDYFCDEFK (UniProt O95757),-0.0832,0.0767
HSD17B10_Q99714_58_LGNNCVFAPADVTSEK (UniProt Q99714),-0.00178,-0.227
HNRNPK_P61978_184_LFQECCPHSTDR (UniProt P61978),0.0719,-0.0203
HNRNPA1L2_Q32P51_175_GHNCEVR (UniProt Q32P51),0.171,0.181
HMOX2_P30519_127_DMEYFFGENWEEQVQCPK (UniProt P30519),-0.0367,0.00744
HSPA2_P54652_606_VCNPIISK (UniProt P54652),-0.0994,-0.035
HPS5_Q9UPZ3_1085_AWSLLQECGLALELSEK (UniProt Q9UPZ3),-0.037,0.0022
HSP90AB1_P08238_521_KRGFEVVYMTEPIDEYCVQQLK (UniProt P08238),-0.0445,-0.285
HSPA9_P38646_366_TIAPCQK (UniProt P38646),-0.177,0.00341
HNRNPUL2_Q1KMD3_538_RNFILDQCNVYNSGQR (UniProt Q1KMD3),0.062,0.112

# Single records, as listed above.
# HNRNPK_P61978_184_LFQECCPHSTDR (UniProt P61978) reads probe-labelled cysteine peptide fold change (10 µM) = 0.0719; probe-labelled cysteine peptide fold change (50 µM) = -0.0203
# HSD17B10_Q99714_58_LGNNCVFAPADVTSEK (UniProt Q99714) reads probe-labelled cysteine peptide fold change (10 µM) = -0.00178; probe-labelled cysteine peptide fold change (50 µM) = -0.227

# Source: the supplement of paper PMC12067093, “Discovery and optimisation of a covalent ligand for TRIM25 and its application to targeted protein ubiquitination” (Chemical Science, 2025)
